Common to all, as to assay: DAPPL (digital affinity profiling via proximity ligation, sequencing)
Settings in all cases: 10 mM Tris-HCl pH 7.5, 50 mM NaCl, 1 mM DTT, 4% glycerol, room temperature, 30 min; GST-TFs on glutathione beads, 16-mer random dsDNA library, 0.1% …; high values mean tight binding; double strand, one strand shown; scale: fold enrichment (6-mer frequency, TF over GST control)

Amino acid sequences for entries named in this document (tags omitted). A change or cut given only in a name is not applied to a line headed by its entry.
UniProt P32519: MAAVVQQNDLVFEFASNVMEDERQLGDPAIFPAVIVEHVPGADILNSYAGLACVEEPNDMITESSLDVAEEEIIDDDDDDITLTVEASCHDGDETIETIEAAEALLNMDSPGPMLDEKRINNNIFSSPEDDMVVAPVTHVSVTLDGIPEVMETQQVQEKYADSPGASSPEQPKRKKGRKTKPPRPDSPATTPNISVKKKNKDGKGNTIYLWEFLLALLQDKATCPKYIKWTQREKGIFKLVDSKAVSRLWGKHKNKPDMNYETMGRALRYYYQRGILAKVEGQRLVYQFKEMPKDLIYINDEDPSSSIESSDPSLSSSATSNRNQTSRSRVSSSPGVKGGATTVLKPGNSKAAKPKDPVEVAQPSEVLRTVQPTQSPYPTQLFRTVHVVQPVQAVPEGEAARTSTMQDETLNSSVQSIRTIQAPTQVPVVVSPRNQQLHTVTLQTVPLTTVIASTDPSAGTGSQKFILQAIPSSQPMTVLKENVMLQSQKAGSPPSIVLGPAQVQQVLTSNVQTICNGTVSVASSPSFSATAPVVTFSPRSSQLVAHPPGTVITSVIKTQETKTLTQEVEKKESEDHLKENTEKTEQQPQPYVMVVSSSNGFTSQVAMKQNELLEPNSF
UniProt P50549: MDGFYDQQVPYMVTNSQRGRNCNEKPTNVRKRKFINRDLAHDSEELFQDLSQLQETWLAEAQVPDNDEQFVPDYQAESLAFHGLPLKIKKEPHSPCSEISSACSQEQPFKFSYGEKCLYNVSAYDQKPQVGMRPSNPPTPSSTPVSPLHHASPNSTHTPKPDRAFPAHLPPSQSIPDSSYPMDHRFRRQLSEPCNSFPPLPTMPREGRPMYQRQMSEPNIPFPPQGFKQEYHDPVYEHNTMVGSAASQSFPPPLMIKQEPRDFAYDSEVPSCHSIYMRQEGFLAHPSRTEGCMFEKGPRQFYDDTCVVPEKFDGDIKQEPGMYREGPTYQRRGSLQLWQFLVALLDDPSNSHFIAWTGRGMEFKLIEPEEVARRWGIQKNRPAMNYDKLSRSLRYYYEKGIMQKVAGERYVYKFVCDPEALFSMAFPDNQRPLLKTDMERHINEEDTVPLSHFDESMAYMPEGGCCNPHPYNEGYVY

In assay [1] the target is T1, ERG (UniProt P11308).
T1 sequence: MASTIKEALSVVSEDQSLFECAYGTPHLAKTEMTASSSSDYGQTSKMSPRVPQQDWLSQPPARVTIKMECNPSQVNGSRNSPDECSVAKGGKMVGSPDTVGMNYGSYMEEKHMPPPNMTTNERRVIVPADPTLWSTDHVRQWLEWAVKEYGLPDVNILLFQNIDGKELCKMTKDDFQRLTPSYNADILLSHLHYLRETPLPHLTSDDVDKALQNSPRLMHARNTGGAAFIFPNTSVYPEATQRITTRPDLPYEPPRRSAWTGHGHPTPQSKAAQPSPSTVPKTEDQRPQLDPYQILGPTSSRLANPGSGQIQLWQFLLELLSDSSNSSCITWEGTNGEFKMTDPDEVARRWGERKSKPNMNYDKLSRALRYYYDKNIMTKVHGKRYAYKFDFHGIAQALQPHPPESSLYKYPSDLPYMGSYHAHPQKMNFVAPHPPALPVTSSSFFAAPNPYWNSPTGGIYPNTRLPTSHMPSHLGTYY

Assay [2] concerns the target T2, ETV4 (UniProt P43268).
T2 sequence: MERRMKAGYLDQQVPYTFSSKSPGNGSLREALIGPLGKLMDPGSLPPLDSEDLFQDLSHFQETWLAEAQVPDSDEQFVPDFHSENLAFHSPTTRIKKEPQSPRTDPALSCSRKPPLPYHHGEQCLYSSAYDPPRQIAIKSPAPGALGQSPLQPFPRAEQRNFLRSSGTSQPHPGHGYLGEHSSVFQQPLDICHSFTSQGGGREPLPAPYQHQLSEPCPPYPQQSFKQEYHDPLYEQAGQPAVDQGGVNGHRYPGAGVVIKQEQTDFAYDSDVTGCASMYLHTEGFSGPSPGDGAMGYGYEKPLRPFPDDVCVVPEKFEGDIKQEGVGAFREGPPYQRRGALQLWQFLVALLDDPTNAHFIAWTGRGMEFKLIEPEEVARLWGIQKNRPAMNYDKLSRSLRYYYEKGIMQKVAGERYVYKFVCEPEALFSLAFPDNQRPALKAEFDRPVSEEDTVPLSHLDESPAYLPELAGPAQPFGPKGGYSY

The target of assay [3] is T3, ERF (UniProt P50548).
T3 sequence: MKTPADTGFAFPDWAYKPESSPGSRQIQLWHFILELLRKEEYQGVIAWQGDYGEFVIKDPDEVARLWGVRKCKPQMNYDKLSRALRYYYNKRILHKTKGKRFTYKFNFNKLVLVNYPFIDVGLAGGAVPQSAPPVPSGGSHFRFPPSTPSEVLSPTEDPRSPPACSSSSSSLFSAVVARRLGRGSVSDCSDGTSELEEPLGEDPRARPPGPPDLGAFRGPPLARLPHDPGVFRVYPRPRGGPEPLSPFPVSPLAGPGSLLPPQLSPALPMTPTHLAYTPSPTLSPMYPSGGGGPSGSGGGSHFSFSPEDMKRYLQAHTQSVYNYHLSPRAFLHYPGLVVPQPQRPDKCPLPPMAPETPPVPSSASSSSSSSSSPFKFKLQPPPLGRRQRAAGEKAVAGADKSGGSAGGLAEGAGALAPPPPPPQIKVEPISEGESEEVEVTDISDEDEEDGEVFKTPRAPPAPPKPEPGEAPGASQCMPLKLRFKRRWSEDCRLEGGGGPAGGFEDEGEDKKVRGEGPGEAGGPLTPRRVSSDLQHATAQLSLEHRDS

Assay [4] concerns the target ELF1 (UniProt P32519).
The target of assay [5] is ETV1 (UniProt P50549).

The entries are a selection whose mix differs from that of the whole data set. For some of these results: At the low end of the ranking the order means little. Some of the results follow. For some of these results: The exact form of the protein is not confirmed.

CGCACG: the results for the binding signal in assay [1], in assay [2] and in assay [3] were 0.925, 0.965 and 1.06, respectively.
For TAGCGT, in that order: 0.986, 0.934 and 0.983.
Turning to CACTGA, the binding signal in assay [1] was 0.992; in assay [2], 1.1; in assay [3] it was 0.937.
The corresponding values for ACTGTC are 0.983, 1.02 and 0.892.
For the sequence AACGGC, the binding signal in assay [1] was determined as 1.18; in assay [4], 1.16; in assay [2] it was 1.24; in assay [5] it was 1.17.
For the sequence TCATGA, the binding signal was 0.986 in assay [1], 1.03 in assay [2] and 0.968 in assay [3].
The corresponding values for TGAATC are 0.993, 0.956 and 0.984.
On to CGCCAC, for which the binding signal is 0.972 in assay [1], 0.984 in assay [2] and 0.968 in assay [3].
For GGACTC, in that order: 0.971, 1.05 and 0.984.
Turning to TATCTG, the binding signal was found to be 1.25 in assay [1], 1.16 in assay [2] and 1.2 in assay [3].
Regarding GGCTAA, the binding signal in assay [1] is 0.952; in assay [2] it was 0.947; in assay [3] it was 0.979.
The corresponding values for ACTATA are 1.31, 1.39 and 1.29.
As for GTCTAT, the binding signal was 0.998 in assay [1], 1.06 in assay [2] and 1.14 in assay [3].
TGCGGA: the values for the binding signal in assay [1], in assay [2] and in assay [3] were 1.37, 1.15 and 1.14, respectively.
The corresponding values for TCTCCA are 1.37, 1.5 and 1.42.
The corresponding values for CTGCGT are 1.13, 1.15 and 1.13.
With TCCTGT, the binding signal in assay [1] was 1.94; in assay [2], 1.66; in assay [3], 1.6.
For GTAATG, in that order: 1.05, 1.04 and 1.12.
As to TCAGCA, the binding signal stood at 0.998 in assay [1], 1.03 in assay [2] and 0.97 in assay [3].
In the case of CTTATA, the binding signal was determined as 1.28 in assay [1], 1.27 in assay [2] and 1.29 in assay [3].
In the case of TCCCGA, the binding signal turned out to be 1.27 in assay [1], 1.26 in assay [2] and 1.34 in assay [3].
Turning to CAATGT, the binding signal was found to be 1.02 in assay [1], 0.985 in assay [4], 0.978 in assay [2] and 1.05 in assay [3].
The corresponding values for ACGCGG are 0.987, 1.03, 0.993 and 0.873.
On to TGCCCC, for which the values for the binding signal in assay [1], in assay [4] and in assay [2] were 1.28, 1.27 and 1.36, respectively.
As to TACCGG, the results for the binding signal in assay [1], in assay [4] and in assay [2] were 1.77, 1.53 and 1.64, respectively.
In the case of TAAGCC, the binding signal in assay [1] worked out at 1.13; in assay [4] it was 1.16; in assay [2], 1.08; in assay [3] it was 1.15.
On to TGAACG, for which the binding signal is 0.878 in assay [1], 0.951 in assay [2] and 0.931 in assay [3].
Regarding CCCCTA, the binding signal in assay [1] stood at 1.05; in assay [4], 1.18; in assay [2], 1.12; in assay [3], 1.04.
On to CACACA, for which the binding signal turned out to be 1.15 in assay [1], 1.16 in assay [4], 1.15 in assay [2] and 1.16 in assay [3].
As for TAATCA, the binding signal amounted to 1.07 in assay [1], 1.19 in assay [2] and 1.09 in assay [3].
In the case of ATGATG, the binding signal in assay [1] is 1.18; in assay [4] it was 1.36; in assay [2], 1.4.
Turning to TGGTCA, the binding signal in assay [1] came to 1.06; in assay [4], 0.983; in assay [2] it was 0.951; in assay [3] it was 0.986.
The corresponding values for TCGTTG are 0.883, 0.925, 1 and 1.03.
In the case of CACGCA, the binding signal in assay [1] was 0.946; in assay [2], 1.09; in assay [3] it was 0.993.
With TCCGCG, the binding signal was found to be 1.41 in assay [1], 1.2 in assay [4], 1.21 in assay [2] and 1.22 in assay [3].
For TCAGCC, the binding signal in assay [1] was 0.97; in assay [4], 0.988; in assay [2] it was 1.11; in assay [3], 0.923.
Consider AGCGTC, for which the binding signal turned out to be 1.1 in assay [1], 0.996 in assay [4] and 1.02 in assay [2].
CCTAGG: the binding signal in assay [1] came out at 1; in assay [4], 1.07; in assay [2], 0.952; in assay [3], 0.908.
Take CCGGCT: the results for the binding signal in assay [1], in assay [4] and in assay [2] were 1.74, 1.68 and 1.66, respectively.
Take CAGCCT: the binding signal in assay [1] stood at 0.995; in assay [4], 1.06; in assay [2], 1.06.
Regarding CCCGAA, the binding signal in assay [1] was determined as 1.18; in assay [4] it was 1.39; in assay [2] it was 1.3; in assay [3], 1.48.
For CCAACG, in that order: 1.17, 1.2, 1.18 and 1.29.
The corresponding values for GTTGCC are 0.931, 0.894, 0.883 and 0.874.
Take AGCTGA: the binding signal in assay [1] was 0.957; in assay [4], 1.1; in assay [2], 0.92; in assay [3] it was 0.967.
With CCTGCG, the binding signal in assay [1] stood at 1.27; in assay [4], 1.38; in assay [2], 1.4; in assay [3], 1.22.
In the case of GAGCTC, the binding signal was determined as 0.808 in assay [1], 0.946 in assay [4], 0.898 in assay [2] and 0.931 in assay [3].
In the case of GTACCA, the binding signal was found to be 0.964 in assay [1], 0.976 in assay [2] and 1.04 in assay [3].
For CTACGT, the binding signal in assay [1] amounted to 1.19; in assay [4] it was 1.13; in assay [2], 1.16.
With ACACGG, the binding signal in assay [1] is 0.997; in assay [2], 0.99; in assay [3], 0.993.
Turning to GTCCGC, the binding signal in assay [1] came to 1.04; in assay [4], 0.977; in assay [2] it was 1.02; in assay [3] it was 0.954.
For the sequence TCATAA, the binding signal in assay [1] was 0.953; in assay [2] it was 0.96; in assay [3], 0.977.
For AGCGGC, the binding signal in assay [1] came out at 0.946; in assay [4], 0.967; in assay [2], 0.875; in assay [3], 0.921.
As to TCCATA, the binding signal was determined as 1.25 in assay [1], 1.25 in assay [2] and 1.37 in assay [3].
CAAGCT: the binding signal in assay [1] was found to be 0.995; in assay [4], 0.999; in assay [2], 1.01; in assay [3], 0.978.
Consider TACAAA, for which the binding signal in assay [1] turned out to be 1.08; in assay [4], 1.14; in assay [2] it was 1.16; in assay [3] it was 1.1.
Regarding TAGATA, the binding signal was found to be 0.962 in assay [1], 1.06 in assay [4], 1.02 in assay [2] and 0.968 in assay [3].
For the sequence CGCGTT, the figures for the binding signal in assay [1], in assay [2] and in assay [3] were 0.994, 0.991 and 0.949, respectively.
As to GAAGCC, the binding signal in assay [1] amounted to 1.08; in assay [4], 0.947; in assay [2], 1.05; in assay [3] it was 0.933.
In the case of TTGCTT, the values for the binding signal in assay [1], in assay [2] and in assay [3] were 1.3, 1.21 and 1.18, respectively.
In the case of AATACT, the binding signal was found to be 1.22 in assay [1], 1.2 in assay [2] and 1.19 in assay [3].
As for TGGTGC, the binding signal is 1.16 in assay [1], 0.989 in assay [4], 0.986 in assay [2] and 1.11 in assay [3].
Regarding CGTTTT, the binding signal came to 1.21 in assay [2] and 1.17 in assay [5].
For AAATCT, in that order: 1.22 and 1.35.
CCCTTC: the binding signal is 1.42 in assay [2] and 1.51 in assay [5].
With TTCCGC, the figures for the binding signal in assay [2] and in assay [5] were 2.94 and 3.17, respectively.
With TTTCCG, the binding signal came out at 3.55 in assay [2] and 3.76 in assay [5].

Values taken from paper PMC7862700.
